Experimental data reported in the supplement of paper PMC10849652.
This is one part of the list.

Sequences of proteins named here, by UniProt entry; tags and fusion partners are left off. A change or cut given only in a name is not applied to a line headed by its entry.
UniProt P20226, whole entry, looked up: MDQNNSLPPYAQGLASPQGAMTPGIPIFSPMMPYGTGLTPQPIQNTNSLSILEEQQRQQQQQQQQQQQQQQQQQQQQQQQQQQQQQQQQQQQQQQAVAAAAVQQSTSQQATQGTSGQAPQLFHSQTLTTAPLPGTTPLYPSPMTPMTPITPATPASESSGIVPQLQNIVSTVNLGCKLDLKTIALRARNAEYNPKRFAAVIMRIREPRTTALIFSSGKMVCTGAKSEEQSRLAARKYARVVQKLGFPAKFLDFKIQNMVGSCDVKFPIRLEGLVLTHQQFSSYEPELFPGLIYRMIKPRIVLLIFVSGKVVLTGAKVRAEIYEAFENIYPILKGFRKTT
UniProt Q13488, whole entry, looked up: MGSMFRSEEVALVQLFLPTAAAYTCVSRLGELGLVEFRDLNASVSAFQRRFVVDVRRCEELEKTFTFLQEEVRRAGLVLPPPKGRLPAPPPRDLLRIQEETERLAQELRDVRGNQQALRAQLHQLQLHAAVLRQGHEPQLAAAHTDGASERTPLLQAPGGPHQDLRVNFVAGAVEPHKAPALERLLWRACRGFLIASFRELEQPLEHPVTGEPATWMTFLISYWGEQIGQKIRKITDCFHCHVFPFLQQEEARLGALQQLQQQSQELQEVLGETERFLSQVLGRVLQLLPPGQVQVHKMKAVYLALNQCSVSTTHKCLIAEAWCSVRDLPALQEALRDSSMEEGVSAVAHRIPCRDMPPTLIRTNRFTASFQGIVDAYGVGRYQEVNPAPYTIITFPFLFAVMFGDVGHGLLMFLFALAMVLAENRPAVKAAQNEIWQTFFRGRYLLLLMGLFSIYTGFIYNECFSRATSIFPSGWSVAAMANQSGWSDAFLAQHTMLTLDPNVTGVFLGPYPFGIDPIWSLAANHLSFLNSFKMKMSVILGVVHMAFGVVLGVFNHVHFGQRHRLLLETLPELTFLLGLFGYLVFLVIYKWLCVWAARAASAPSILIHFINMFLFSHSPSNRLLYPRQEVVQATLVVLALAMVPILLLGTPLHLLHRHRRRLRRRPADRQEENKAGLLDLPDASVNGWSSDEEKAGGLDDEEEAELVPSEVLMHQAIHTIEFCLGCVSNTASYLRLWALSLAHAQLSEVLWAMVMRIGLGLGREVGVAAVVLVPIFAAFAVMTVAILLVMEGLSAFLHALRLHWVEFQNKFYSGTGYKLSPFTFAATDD
UniProt Q01664: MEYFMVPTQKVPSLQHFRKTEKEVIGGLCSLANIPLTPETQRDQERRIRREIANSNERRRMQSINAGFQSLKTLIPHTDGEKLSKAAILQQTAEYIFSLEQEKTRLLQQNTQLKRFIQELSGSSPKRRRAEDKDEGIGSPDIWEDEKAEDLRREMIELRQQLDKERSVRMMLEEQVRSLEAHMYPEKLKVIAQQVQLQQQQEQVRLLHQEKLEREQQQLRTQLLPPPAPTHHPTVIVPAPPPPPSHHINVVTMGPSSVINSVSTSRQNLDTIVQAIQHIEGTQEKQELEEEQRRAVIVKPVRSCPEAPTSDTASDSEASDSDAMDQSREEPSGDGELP
UniProt Q13428: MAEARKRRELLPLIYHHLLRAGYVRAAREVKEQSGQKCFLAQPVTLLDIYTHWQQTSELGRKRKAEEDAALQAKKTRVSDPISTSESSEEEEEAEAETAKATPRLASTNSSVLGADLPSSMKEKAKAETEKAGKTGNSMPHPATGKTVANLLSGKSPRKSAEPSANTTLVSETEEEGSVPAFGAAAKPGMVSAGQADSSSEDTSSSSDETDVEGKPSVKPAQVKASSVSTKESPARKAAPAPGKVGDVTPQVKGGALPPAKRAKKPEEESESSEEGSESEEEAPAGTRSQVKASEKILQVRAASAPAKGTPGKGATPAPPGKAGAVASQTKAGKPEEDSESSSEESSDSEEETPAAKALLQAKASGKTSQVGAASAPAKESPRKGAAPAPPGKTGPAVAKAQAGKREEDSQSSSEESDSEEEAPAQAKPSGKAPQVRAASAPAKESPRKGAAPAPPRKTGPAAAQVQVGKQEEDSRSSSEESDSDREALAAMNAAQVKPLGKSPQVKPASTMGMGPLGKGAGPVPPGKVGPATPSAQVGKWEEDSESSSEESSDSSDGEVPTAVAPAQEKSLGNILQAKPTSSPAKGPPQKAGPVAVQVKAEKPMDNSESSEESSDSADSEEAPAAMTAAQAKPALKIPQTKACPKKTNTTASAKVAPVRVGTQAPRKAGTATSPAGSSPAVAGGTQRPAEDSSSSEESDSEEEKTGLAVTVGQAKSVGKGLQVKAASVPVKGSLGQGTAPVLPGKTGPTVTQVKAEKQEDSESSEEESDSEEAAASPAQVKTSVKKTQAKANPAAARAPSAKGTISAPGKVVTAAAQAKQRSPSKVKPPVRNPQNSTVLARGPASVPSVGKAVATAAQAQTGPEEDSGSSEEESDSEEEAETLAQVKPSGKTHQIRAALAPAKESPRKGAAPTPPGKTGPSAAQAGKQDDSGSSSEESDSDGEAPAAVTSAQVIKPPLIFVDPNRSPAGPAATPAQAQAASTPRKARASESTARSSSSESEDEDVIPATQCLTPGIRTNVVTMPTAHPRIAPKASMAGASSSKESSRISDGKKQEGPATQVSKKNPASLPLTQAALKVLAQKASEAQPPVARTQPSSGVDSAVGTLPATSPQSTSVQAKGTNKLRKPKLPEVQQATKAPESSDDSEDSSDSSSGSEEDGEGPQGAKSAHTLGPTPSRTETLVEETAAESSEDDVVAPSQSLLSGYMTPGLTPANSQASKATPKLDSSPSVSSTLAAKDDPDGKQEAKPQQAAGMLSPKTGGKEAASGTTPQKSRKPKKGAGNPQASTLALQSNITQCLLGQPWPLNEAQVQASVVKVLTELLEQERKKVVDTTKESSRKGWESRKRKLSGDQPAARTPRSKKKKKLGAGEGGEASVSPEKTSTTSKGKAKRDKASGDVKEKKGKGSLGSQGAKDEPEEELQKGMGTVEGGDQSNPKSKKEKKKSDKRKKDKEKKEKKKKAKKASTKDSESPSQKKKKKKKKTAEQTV
UniProt Q9BU02: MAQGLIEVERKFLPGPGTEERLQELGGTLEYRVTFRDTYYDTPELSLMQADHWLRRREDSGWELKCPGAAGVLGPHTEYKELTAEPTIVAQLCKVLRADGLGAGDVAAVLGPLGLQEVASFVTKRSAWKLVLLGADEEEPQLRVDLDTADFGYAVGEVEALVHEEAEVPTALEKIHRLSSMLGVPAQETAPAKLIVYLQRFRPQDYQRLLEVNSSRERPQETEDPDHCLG
UniProt A6NFQ2: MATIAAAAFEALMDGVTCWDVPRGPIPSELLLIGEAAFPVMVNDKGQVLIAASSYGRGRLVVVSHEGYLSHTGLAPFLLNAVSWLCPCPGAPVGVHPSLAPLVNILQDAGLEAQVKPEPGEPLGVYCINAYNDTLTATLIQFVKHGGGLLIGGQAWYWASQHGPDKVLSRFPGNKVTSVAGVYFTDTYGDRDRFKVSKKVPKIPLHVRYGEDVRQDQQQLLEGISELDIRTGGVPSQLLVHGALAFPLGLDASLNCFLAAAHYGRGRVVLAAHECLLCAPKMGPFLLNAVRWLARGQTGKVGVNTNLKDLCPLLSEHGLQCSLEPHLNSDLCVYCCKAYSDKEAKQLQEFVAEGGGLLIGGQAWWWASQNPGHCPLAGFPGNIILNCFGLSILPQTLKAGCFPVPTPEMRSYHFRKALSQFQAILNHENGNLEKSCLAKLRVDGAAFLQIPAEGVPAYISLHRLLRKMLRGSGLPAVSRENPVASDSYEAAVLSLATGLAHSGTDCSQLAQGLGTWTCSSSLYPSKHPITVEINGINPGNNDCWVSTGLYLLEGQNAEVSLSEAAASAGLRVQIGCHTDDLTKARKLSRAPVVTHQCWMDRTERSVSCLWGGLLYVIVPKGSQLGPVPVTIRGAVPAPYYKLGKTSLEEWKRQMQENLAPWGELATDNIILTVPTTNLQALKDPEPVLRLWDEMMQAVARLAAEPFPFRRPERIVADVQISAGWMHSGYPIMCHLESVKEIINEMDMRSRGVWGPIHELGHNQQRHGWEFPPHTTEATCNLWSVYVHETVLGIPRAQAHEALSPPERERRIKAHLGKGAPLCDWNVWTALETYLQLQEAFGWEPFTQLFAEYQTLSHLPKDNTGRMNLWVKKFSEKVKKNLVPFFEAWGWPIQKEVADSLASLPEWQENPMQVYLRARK
UniProt Q96EI5: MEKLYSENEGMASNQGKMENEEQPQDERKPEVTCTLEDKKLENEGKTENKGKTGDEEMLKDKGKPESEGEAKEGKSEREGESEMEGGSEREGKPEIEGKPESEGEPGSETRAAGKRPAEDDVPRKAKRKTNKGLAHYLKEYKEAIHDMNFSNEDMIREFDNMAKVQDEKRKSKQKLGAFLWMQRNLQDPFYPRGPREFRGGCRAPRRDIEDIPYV

compound: O=C(CCCCCCNC(=O)c1cnc(N(c2ccccc2)c2ccccc2Cl)nc1)NO [citarinostat]; assay: log2 fold change, soluble protein after heating vs DMSO (PISA); higher = thermal stabilisation; K562 cells, 10 uM, 30 min; active = over 0.2 and 3.5 SD of the protein, either way, in both replicates (recomputed)
In short: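 Soluble protein was defined as the supernatant after 21,000xg for 90 min. It came from K562 cells at 2×10^6 cells/mL given 10 μM compound for 30 min, heated in aliquots for 3 min across 48°C-58°C, pooled, and extracted in PBS with 0.5% NP-40 at 4°C, and was quantified by TMTpro 16plex LC-MS/MS with equalised channel sums. Thermal stability against control samples, from duplicates, is reported as log2 fold change.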

log2 fold change, inactive:
TBP (UniProt P20226) 0.013
TBC1D2 (UniProt Q9BYX2) -0.026
TCIRG1 (UniProt Q13488) 0.072
TFCP2 (UniProt Q12800) -0.007
TFAP4 (UniProt Q01664) 0.18
TCOF1 isoform 3 (UniProt Q13428) 0.105
TET2 (UniProt Q6N021) -0.369
TFIP11 (UniProt Q9UBB9) 0.008
THTPA (UniProt Q9BU02) 0.048
TLE3 (UniProt Q04726) 0.023
TDRD7 (UniProt Q8NHU6) -0.163
TCAF2 (UniProt A6NFQ2) -0.086
TCEAL4 isoform 2 (UniProt Q96EI5) 0.057
TCF3 isoform 2 (UniProt P15923) 0.12
TCP11L1 (UniProt Q9NUJ3) -0.001
TEX10 (UniProt Q9NXF1) -0.539

2 records picked at random from the list so far, as already listed:
log2 fold change, inactive:
TBC1D2 (UniProt Q9BYX2) -0.026
TCEAL4 isoform 2 (UniProt Q96EI5) 0.057
